From publication PMC8163841
Results are given in words; binding and its absence hold for the method and conditions named. Some entries that bind do so weakly or less than the wild type. Sequences can lack the tags named with a protein.

Protein sequences, listed by entry. Tags and fused reporters are not part of them.
UniProt P53115: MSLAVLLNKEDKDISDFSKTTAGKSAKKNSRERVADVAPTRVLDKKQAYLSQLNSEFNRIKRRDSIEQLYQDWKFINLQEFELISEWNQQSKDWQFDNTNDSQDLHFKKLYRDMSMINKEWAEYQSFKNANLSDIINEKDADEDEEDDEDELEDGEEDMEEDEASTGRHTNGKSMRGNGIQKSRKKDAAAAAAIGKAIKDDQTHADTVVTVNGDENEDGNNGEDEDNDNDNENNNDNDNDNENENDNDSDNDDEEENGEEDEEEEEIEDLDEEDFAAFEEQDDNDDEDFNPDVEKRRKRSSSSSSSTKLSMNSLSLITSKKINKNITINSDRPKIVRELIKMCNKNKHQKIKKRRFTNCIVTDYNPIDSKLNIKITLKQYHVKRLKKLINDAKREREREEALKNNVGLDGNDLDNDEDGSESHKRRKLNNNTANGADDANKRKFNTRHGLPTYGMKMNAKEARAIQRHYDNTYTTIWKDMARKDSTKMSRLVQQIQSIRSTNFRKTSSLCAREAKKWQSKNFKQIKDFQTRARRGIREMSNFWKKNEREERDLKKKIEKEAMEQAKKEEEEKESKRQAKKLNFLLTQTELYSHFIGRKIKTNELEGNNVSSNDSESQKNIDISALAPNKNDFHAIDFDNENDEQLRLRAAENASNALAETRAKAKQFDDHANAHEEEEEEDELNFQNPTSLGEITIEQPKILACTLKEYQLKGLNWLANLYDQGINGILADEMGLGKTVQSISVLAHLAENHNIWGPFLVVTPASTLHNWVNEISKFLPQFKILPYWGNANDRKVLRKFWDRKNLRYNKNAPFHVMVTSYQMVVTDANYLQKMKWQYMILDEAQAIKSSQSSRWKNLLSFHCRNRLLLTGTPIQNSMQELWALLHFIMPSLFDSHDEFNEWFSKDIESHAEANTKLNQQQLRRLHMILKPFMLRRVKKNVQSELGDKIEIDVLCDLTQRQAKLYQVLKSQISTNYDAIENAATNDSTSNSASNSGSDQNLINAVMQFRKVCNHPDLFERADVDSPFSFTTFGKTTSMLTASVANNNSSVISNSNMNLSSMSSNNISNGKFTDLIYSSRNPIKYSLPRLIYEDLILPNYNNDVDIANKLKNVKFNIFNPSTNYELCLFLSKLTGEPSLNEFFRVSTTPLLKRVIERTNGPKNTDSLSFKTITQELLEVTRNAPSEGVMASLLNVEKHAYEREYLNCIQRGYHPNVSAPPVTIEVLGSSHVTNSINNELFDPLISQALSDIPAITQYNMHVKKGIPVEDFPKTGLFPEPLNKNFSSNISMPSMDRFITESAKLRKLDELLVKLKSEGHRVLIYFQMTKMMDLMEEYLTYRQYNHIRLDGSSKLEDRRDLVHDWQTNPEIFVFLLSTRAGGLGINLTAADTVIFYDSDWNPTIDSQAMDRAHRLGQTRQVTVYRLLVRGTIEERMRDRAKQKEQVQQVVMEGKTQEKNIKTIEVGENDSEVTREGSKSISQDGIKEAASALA
UniProt P35189: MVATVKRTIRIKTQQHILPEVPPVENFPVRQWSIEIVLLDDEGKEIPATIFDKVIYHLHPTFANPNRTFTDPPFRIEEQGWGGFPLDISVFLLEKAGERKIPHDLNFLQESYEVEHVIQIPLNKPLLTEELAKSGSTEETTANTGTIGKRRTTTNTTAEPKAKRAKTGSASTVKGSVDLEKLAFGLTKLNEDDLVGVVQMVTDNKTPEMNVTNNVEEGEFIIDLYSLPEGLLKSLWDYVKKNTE

B1: Ies4 (protein, UniProt Q08561 1-116)
chain: MSQESSVLSESQEQLANNPKIEDTSPPSANSRDNSKPVLPWDYKNKAIEIKSFSGYKVNFTGWIRRDVREERQRGSEFTASDVKGSDDKATRKKEPADEDPEVKQLEKEGEDGLDS
B2: Ies1 (protein, UniProt P43579 1-692)
chain: MGKRVYDPIHDTFQLREDNSDETKADSPMQSVKSGSQEEASPSSIQSETETVTTKSIPVIHEIEIDDKNDDDSTQSEEENTNILLNFEPSTVPEATGASTATGPVTTNTVRRKPKESNASKYNRHLKKPDGEPFNRKDIQFSFMQELLMDKRQIFTNVLKPLYKNSIVPINIDGDKLSINVTDKEYDARTFVFNDKLTFAQLYVLTIATSIKCSKILRDKLLLDQQVAFSTCVLALLVNIGRLNTTINFYLEMTSQLRTFHSVPVLQLHANDPKLLQDTPRLKSILKNLPWGNEQLSLMETYKKVDQNDGEVDTVNKFNIINMLFSICDNSGLIDKRFLSKYVEVESKAQEQDMVDEQNEVKETEAENEKQESKAAYATTLFDILDYSKYEPKDRSNILIWLLYIHLETNLSQEEVEESVRFFNGLEDGAPAGKFILRCTERSYDTDPEDELEFGANQRIKRREFMSKMEEGRKRERTNVTEVKKPSIGGDKSEEDGEGEDDKSEETVEETRSLLTPTPILESSSPMTLNRKKVTPQLPKVTPAAPTETEEEITSAAIIDKNDLNLTPLKKYNSSATVNKVDKLISLDLNKHVSENGKTQEEFLADLKKSQVPNRLKRRDIGLIKIFNEFEDIPVASVLGIRGKKRKKFKDNLLGFETDFMKNLGASKKVLLNKIERAEIDDEEATAMFKLE
B3: Ies3 (protein, UniProt Q12345 1-250)
chain: MKFEDLLATNKQVQFAHAATQHYKSVKTPDFLEKDPHHKKFHNADGLNQQGSSTPSTATDANAASTASTHTNTTTFKRHIVAVDDISKMNYEMIKNSPGNVITNANQDEIDISTLKTRLYKDNLYAMNDNFLQAVNDQIVTLNAAEQDQETEDPDLSDDEKIDILTKIQENLLEEYQKLSQKERKWFILKELLLDANVELDLFSNRGRKASHPIAFGAVAIPTNVNANSLAFNRTKRRKINKNGLLENIL
B4: Ies5 (protein, UniProt P40060 1-125)
chain: MPSKDPESVIDKEIRKISARNDELIKQDGTLKREYTTLLRKVSSVITVLNSIDDADTGSAETELPRLISQATVEKVPELKWYNDQISLITEKLEDDEDIEVPEELMDAYTLYKETPLLYNDTHTP
B5: Nhp10 (protein, UniProt Q03435 1-203)
chain: MSVEEKKRRLEELKDQNVVLGLAIQRSRLSVKRLKLEYGVLLERLESRIELDPELNCEDPLPTLASFKQELLTKPFRKSKTKRHKVKERDPNMPKRPTNAYLLYCEMNKERIRQNGSLDVTRDLAEGWKNLNEQDRKPYYKLYSEDRERYQMEMEIYNKKISNIDADDDKEENEQKIKNNEEGSSTKVADSKGGEDGSLVSSN
B6: Arp5-His (protein, UniProt P53946 1-755)
chain: MSSRDASLTPLKAVVIDDPPLRQTPEPFDEQSAYNPQSPIAIDFGSSKLRAGFVNHATPTHIFPNALTKFRDRKLNKNFTFVGNDTLLDQAVRSQSRSPFDGPFVTNWNLTEEILDYTFHHLGVVPDNGIPNPILLTERLATVQSQRTNWYQILFETYNVPGVTFGIDSLFSFYNYNPSGNKTGLVISCGHEDTNVIPVVDGAGILTDAKRINWGGHQAVDYLNDLMALKYPYFPTKMSYLQYETMYKDYCYVSRNYDEDIEKILTLENLDTNDVVVEAPFTEVLQPQKTEEELRIQAEKRKETGKRLQEQARLKRMEKLVQKQEEFEYFSKVRDQLIDEPKKKVLSVLQNAGFDDERDFKKYLHSLEQSLKKAQMVEAEDDSHLDEMNEDKTAQKFDLLDIADEDLNEDQIKEKRKQRFLKASQDARQKAKEEKERVAKEEEEKKLKEQQWRETDLNGWIKDKRLKLNKLIKRRKEKLKLRDEMKDRKSQVSQNRMKNLASLAEDNVKQGAKRNRHQATIDNDPNDTFGANDEDWLIYTDITQNPEAFEEALEYEYKDIVELERLLLEHDPNFTEEDTLEAQYDWRNSILHLFLRGPRPHDSENIHEQHQMHLNVERIRVPEVIFQPTMGGQDQAGICELSETILLKKFGSQPGKLSQTSIDMVNNVLITGGNAKVPGLKERIVKEFTGFLPTGTNITVNMSSDPSLDAWKGMAALARNEEQYRKTVISKKEYEEYGPEYIKEHKLGNTKYFED
B7: Ies6 (protein, UniProt P32617 1-166)
chain: MSGSRGNSSNSSVSNNSNNNNNNDGGDERLLFLRSVGERNEIGFPSRFKSAHYKKPTRRHKSARQLISDENKRINALLTKANKAAESSTAARRLVPKATYFSVEAPPSIRPAKKYCDVTGLKGFYKSPTNNIRYHNAEIYQLIVKPMAPGVDQEYLKLRGANFVLK
B8: Ies2 (protein, UniProt P40154 1-320)
chain: MDSEASDIEAELSDSVSAGGEEYIDDDDYTEDIDDQIVTAKSSRRTARRSVPKGVRTSKRIRDKELSVEVDEDYDEEEDVLSPSKKRHLHTRSMDKRQVAATASEKSDIGDSKGNDGEIEDGILEEEESLEKELNRGGGKEVEKSEESYYAQNDVGQKGEEEQDGESGGYEDNEPSISKESDELVSVVNGNGNEEDDEVEATKENTTDSTRSTTTRSKMLLDLLEDGGSKKKLTDEEIQLRRAENARKRKNLSEKRLEEEKQDTINKLLKKRAGKSRSHLPNDDEKNDGSSSFVKPRRPYNSEGMTRILRRYEEDLFCTF

What follows are molecules tested against Ino80 carrying a C-terminal 2xFlag-tag (S. cerevisiae) (UniProt P53115) (assay: co-purification (anti-Flag affinity, anion exchange, size exclusion); High Five cells co-infected with two baculoviruses; cleared lysate (500 mM NaCl) on anti-Flag M2 Affinity Gel by Ino80-2xFlag, washes with 500 and 200 mM KCl, elution with Flag peptide, MonoQ with KCl gradient 200-1000 mM and, if required, Superose 6).

binding, binds:
Taf14 (from UniProt P35189 1-244), B1, B2, B3, B4, B5, B6, B7, B8
